Assay results published in US12521356B2, “Compositions and methods for treating pain, inflammation, infection, malaria, and sepsis” (Duke University, priority 2018, dated 2026).
For some of these results: At least one peptide structure holds a part that was inferred or is arguable (an end, a ring closure or a residue). For some of these results: At least one compound was matched to its structure with a doubt left. Square brackets hold non-standard residues; d marks the D form. Peptide text beside a SMILES is read from it. ξ: configuration not given here. ξA = CC(N)C(=O)O

Protein sequences, listed by entry. Tags and fused reporters are not part of them. Lines headed by an entry give the natural chain unless they say otherwise; changes in a name come on top.
UniProt O75388: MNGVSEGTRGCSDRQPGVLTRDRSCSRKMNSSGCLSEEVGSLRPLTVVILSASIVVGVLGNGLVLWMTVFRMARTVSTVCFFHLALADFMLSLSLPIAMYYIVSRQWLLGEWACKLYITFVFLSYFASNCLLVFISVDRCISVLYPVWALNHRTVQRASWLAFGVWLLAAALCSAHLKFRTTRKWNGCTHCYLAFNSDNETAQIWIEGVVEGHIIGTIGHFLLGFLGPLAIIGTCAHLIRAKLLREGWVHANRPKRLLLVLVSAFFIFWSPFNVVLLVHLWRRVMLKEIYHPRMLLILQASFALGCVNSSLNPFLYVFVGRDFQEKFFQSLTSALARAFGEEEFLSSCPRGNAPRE

Legend:
[1] = target: T1, GPR37 (Homo sapiens, UniProt O15354); experiment: Ca2+ imaging (Fura-2AM) in HEK293 cells transfected with human GPR37 cDNA; type: cell-based; details: 1 μM, 3 min; GPR37-expressing HEK293 cells
T1 construct: host or cells: HEK293 flip-in cells
T1 sequence (O15354 27-613): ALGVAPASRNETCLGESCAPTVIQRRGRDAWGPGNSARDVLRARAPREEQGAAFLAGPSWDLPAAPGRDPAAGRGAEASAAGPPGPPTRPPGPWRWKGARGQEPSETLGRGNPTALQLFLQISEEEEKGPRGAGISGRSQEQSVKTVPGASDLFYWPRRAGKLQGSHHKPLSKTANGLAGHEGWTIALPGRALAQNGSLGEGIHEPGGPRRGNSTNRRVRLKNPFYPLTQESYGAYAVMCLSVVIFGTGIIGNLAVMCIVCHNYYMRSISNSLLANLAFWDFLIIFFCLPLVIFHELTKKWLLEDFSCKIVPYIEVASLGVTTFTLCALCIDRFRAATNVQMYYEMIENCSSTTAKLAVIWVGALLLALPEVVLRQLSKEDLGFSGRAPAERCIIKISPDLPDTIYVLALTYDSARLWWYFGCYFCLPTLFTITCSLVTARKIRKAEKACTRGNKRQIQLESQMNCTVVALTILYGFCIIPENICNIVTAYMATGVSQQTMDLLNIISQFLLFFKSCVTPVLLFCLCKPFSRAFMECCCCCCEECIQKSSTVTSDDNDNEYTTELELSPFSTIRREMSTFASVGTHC
Protocol: (§1) HEK cell culture and transfection. HEK293 flip-in cell line was purchased from Duke Cell Culture Facility. Cells were cultured in high glucose (4.5 g/L) Dulbecco's Modified Eagle's Medium containing 10% (v/v) fetal bovine serum (Gibco). Transfection (2 μg cDNA) was performed with Lonza electroporation (Lonza) at 70% confluency and the transfected cells were cultured in the same growth medium for 48 h before use. The hGPR37-V5 pLenti304 plasmids were obtained from DNASU (Tempe, AZ), and hGPR32, hChemR23 and hALX pcDNA3 plasmids were provided by Dr. Serhan from Harvard Medical School, Boston.
Calcium imaging. HEK 293 cells, with or without transfection of Gpr37, GPR32, ChemR23 or ALX1 cDNA, were loaded with 5 μM Fura-2AM (Invitrogen) for 1 hour and then were resuspended in normal external buffer (140 NaCl, 5 KCl, 2 CaCl2, 2 MgCl2, 10 HEPES, in mM, titrated to pH 7.4 with NaOH) or external Ca^2+-free buffer (140 NaCl, 2 MgCl2, 5 EGTA, 10 HEPES, in mM, titrated to pH 7.4 with NaOH). Peritoneal macrophages, collected from WT and Gpr37 KO mice, were loaded with 5 μM Fura-4AM (Invitrogen) for 1 hour and then were resuspended in normal external buffer. […] The ratio of fluorescence intensity of the two wavelengths in each experiment was analyzed using MetaFluor (Molecular Devices). […]

[2] = target: T1, GPR37; experiment: Dot blot binding assay with lysates of HEK293 cells with GPR37 cDNA or mock transfection
Protocol: Lipids overlay assay. Lipids membrane coating and protein overlay assay was conducted as previously described (Ji R R, et al. Science 2016, 354, 572-577). Ethanol and chloroform soluble fatty acids were directly loaded on hydrophobic PVDF membrane (Bio-Rad). The fatty acids (NPD1, RvD1, RvE1, and DHA) coated membranes were dried and blocked with 1% BSA. The cell lysate and purified GPR37-V5 protein were incubated with the coating membrane for 2 h, and the binding was detected by anti-V5 tagged antibody (mouse, 1:1000, Thermo scientific, Catalog: 46-0705).
as §1
To determine whether NPD1 and TX14 bind to GPR37, we conducted dot blot assay by coating the blots with different concentrations of NPD1 and TX14 and included RvE1 as a control. […]

[3] = test system: peritoneal macrophages (pMΦ); experiment: Phagocytosis assay with fluorescence-labeled zymosan particles in peritoneal macrophages; type: cell-based, mouse
Protocol: Peritoneal macrophage culture. Peritoneal macrophages were collected by peritoneal lavage with 10 ml warm PBS containing of 1 mM EDTA. Cells were incubated in DMEM supplemented with 10% FBS at 37° C. for 2 h in petri dish and washed with PBS to eliminate non-adherent cells. The adherent cells were used as peritoneal macrophages. Peritoneal macrophages were used after 3 days of culture.
Phagocytosis assay. The phagocytosis assay was modified from a previously described protocol (Sommer C, and Kress M. NeurosciLett. 2004, 361, 184-187). pHrodo® Red Zymosan Bioparticles (diameter, 3 μm, Thermo scientific, Catalog: P35364) were rinsed and reconstituted in RPMI medium. Particles were centrifuged (1 min at 100 g) onto adherent peritoneal macrophages at a ratio of 10:1 to synchronize binding and internalization. After 30 min incubation at 37° C., non-adherent beads were removed with cold PBS and cells were fixed with 2% formalin. Four optic fields were photographed with epifluorescence microscopy. Quantification of zymosan particles ingested by MΦ was conducted on at least 200 macrophages/condition/well, and triplicates were included for statistical analysis.
We investigated whether iCa^2+ increases would trigger phagocytosis of pathogens such as zymosan by macrophages. Zymosan is a well-studied pathogen and activates TLR2 to trigger inflammation and inflammatory pain in rodents after intraplantar injection. We tested phagocytosis in pMΦ using fluorescence-labeled zymosan particles.

[4] = target: T2, ChemR23 (Homo sapiens, UniProt Q99788); experiment: Ca2+ imaging (Fura-2AM) in HEK293 cells transfected with ChemR23 cDNA; type: cell-based; details: 1 μM; HEK293 cells expressing ChemR23
T2 construct: host or cells: HEK293 flip-in cells
T2 sequence (Q99788 1-373): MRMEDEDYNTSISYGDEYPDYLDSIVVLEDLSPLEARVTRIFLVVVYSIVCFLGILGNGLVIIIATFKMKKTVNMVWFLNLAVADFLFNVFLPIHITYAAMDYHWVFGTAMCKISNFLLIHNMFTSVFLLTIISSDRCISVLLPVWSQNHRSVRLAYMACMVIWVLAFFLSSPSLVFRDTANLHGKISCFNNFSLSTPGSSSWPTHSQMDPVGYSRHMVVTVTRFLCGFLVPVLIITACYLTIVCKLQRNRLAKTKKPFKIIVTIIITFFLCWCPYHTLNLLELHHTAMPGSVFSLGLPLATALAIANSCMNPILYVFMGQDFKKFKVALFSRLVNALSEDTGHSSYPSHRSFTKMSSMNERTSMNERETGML
Source text: (§2) FIG. 10A-FIG. 10C. Characterization of intracellular Ca^2+ changes in HEK293 cells expressing ChemR23, GPR32, and ALX. Ca^2+ imaging with Fura-2AM indicator showing iCa^2+ levels in HEK293 cells transfected with ChemR23 (FIG. 10A), GPR32 (FIG. 10B), and ALX (FIG. 10C) cDNAs. Note that NPD1 fails to elicit iCa^2+ increase in HEK293 cells expressing ChemR23, GPR32, and ALX. […] ATP is included as a positive control. *P<0.05, compared with baseline n=44˜97 cells from 3 cultures. All the data are expressed as mean±s.e.m.
as §1
(§3) Calcium imaging. […] The ratio of fluorescence intensity of the two wavelengths in each experiment was analyzed using MetaFluor (Molecular Devices). […]

[5] = target: T3, GPR32 (Homo sapiens, UniProt O75388); experiment: Ca2+ imaging (Fura-2AM) in HEK293 cells transfected with GPR32 cDNA; type: cell-based; details: 1 μM; HEK293 cells expressing GPR32
T3 construct: host or cells: HEK293 flip-in cells
Source text: as §2, §1, §3

[6] = target: T4, ALX (Homo sapiens, UniProt P25090); experiment: Ca2+ imaging (Fura-2AM) in HEK293 cells transfected with ALX cDNA; type: cell-based; details: 1 μM; HEK293 cells expressing ALX
T4 construct: host or cells: HEK293 flip-in cells
T4 sequence (P25090 1-351): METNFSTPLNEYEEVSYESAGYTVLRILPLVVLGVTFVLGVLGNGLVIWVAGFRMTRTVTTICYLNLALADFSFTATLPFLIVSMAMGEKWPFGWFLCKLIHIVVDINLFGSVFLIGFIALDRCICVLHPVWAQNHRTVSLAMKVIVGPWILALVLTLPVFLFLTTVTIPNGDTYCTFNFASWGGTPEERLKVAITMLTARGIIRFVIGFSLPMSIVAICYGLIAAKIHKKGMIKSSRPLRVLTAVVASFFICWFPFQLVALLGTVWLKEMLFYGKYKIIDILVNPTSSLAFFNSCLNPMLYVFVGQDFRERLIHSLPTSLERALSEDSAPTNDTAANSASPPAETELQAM
Source text: as §2, §1, §3

Structure (SMILES) | intracellular Ca2+ (iCa2+) increase [1] | binding to GPR37-containing lysates ([2]; blots coated with different concentrations, lysates of HEK293 cells with GPR37 cDNA) | binding of lysates from mock transfection (GPR37-negative) ([2]; mock-transfected HEK293 lysates) | dependence of induced phagocytosis on Gpr37 ([3]; WT vs Gpr37 KO pMΦ) | MΦ phagocytosis ([3]; pMΦ) | Ca2+ response [4] | Ca2+ response [5] | Ca2+ response [6] | effect on NPD1-induced phagocytosis ([3]; LY294002 50 μM, U0126 10 μM, PTX 1 μg/mL, BAPTA-AM 10 μM)
CC[C@H](C)[C@H](NC(=O)[C@H](CCC(=O)O)NC(=O)[C@H](CCC(=O)O)NC(=O)[C@@H](NC(=O)[C@H](C)NC(=O)[C@H](CC(N)=O)NC(=O)[C@H](CC(N)=O)NC(=O)[C@H](CC(=O)O)NC(=O)[C@@H](NC(=O)[C@H](CC(C)C)NC(=O)C(C)NC(=O)[C@@H](N)[C@@H](C)O)[C@@H](C)CC)[C@@H](C)O)C(=O)N[C@@H](CC(C)C)C(=O)N[C@@H](Cc1ccc(O)cc1)C(=O)O (stereo partly shown) [TX14] (H-T[ξA]LIDNNATEEILY-OH; N-terminus and C-terminus assumed) | elicited significant increases | dose-dependent binding | did not show binding activities | required Gpr37 | induced |  |  |  | 
CC/C=C\C/C=C\C/C=C\C/C=C\C/C=C\C/C=C\CCC(=O)O [DHA, docosahexaenoic acid] | Neither did the precursors of these SPMs (DHA and EPA), at a much higher concentration (1 μM), evoked calcium responses |  |  |  |  | fail to evoke Ca^2+ responses | fail to evoke Ca^2+ responses | fail to evoke Ca^2+ responses | 
O=c1cc(N2CCOCC2)oc2c(-c3ccccc3)cccc12 [LY294002] |  |  |  |  |  |  |  |  | inhibited
